Test results reported in doi:10.1101/2025.09.19.677360.
No constants are given. Whether binding was seen depends on the method and setting. Some entries that bind do so weakly or less than the wild type.

The chains behind the UniProt entries cited, without tags or fusion partners.
UniProt Q10428: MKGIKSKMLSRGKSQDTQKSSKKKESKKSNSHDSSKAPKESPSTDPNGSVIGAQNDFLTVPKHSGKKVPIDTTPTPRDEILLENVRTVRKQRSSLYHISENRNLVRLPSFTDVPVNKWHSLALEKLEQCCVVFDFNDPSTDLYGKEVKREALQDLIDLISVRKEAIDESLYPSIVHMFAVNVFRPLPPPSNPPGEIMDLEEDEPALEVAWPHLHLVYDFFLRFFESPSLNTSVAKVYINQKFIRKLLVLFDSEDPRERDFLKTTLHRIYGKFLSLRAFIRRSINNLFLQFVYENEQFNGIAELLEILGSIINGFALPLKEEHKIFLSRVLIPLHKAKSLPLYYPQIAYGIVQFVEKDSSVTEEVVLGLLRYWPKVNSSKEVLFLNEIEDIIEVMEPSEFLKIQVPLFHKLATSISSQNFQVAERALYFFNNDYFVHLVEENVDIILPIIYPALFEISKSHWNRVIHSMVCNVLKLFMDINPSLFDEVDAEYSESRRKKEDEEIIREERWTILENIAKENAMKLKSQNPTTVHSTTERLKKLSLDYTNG

Biological target: Par1, the PP2A subunit which binds Sgo1 (S. pombe) (UniProt Q10428)
Experiment: two-hybrid

B1: Rec8-2E (S449E, S450E) (protein, UniProt P36626 1-561)
chain: MFYNQDVLTKEKGGMGVIWLAATLGSKHSLRKLHKKDIMSVDIDEACDFVAFSPEPLALRLSSNLMIGVTRVWAHQYSFFHSQVSTLHLRVRKELDHFTSKPFKNIDIQNEQTNPKQLLLAEDPAFIPEVSLYDAFNLPSVDLHVDMSSFTQPKENPNISVLETLPDSTSYLINTSQNYSLRNNVSSFVYEDSRAFSTEEPLDFEFDENGDIQELTKGTINSDPSLQAASQHSNLGSVQREYNSEEQESRIHMFEIDEDVLPLPVPLQSVMDSEHNENEPRALKRRKVQKLLEPDENIELSTRTLSQWRKNYVERMIALEATKYVRRRGASSAKKKELNKFFDWESFHPLLKPWIEKLKPSNNTPSEIDDVLRNIDTSEVEVGRDVQGELGLNIPWNTSSRSNSAINSKSHSQTGSEHSTPLLDTKYRKRLPHSPSMPSRVEFLPALEEEQFHETLNSELSLQLSDDFVLYKNTQEENAHLMLSMEKECANFYEYAKTAIYENNGRITFSSLLPNDLKRPVVAQAFSHLLSLATKSAFLVKQDKPYSEISVSLNLKSTDAI
**Q.** B1 was tested. Which binding did it give?
**A.** Its binding is “binds”.

B2: Rec8-WT (protein, UniProt P36626 1-561)
chain: MFYNQDVLTKEKGGMGVIWLAATLGSKHSLRKLHKKDIMSVDIDEACDFVAFSPEPLALRLSSNLMIGVTRVWAHQYSFFHSQVSTLHLRVRKELDHFTSKPFKNIDIQNEQTNPKQLLLAEDPAFIPEVSLYDAFNLPSVDLHVDMSSFTQPKENPNISVLETLPDSTSYLINTSQNYSLRNNVSSFVYEDSRAFSTEEPLDFEFDENGDIQELTKGTINSDPSLQAASQHSNLGSVQREYNSEEQESRIHMFEIDEDVLPLPVPLQSVMDSEHNENEPRALKRRKVQKLLEPDENIELSTRTLSQWRKNYVERMIALEATKYVRRRGASSAKKKELNKFFDWESFHPLLKPWIEKLKPSNNTPSEIDDVLRNIDTSEVEVGRDVQGELGLNIPWNTSSRSNSAINSKSHSQTGSEHSTPLLDTKYRKRLPHSPSMPSRVEFLPALESSQFHETLNSELSLQLSDDFVLYKNTQEENAHLMLSMEKECANFYEYAKTAIYENNGRITFSSLLPNDLKRPVVAQAFSHLLSLATKSAFLVKQDKPYSEISVSLNLKSTDAI
**Q.** B2 was tested. Which binding did it give?
**A.** Its binding is “no binding”.

B3: Rec8-2A (S449A, S450A) (protein, UniProt P36626 1-561)
chain: MFYNQDVLTKEKGGMGVIWLAATLGSKHSLRKLHKKDIMSVDIDEACDFVAFSPEPLALRLSSNLMIGVTRVWAHQYSFFHSQVSTLHLRVRKELDHFTSKPFKNIDIQNEQTNPKQLLLAEDPAFIPEVSLYDAFNLPSVDLHVDMSSFTQPKENPNISVLETLPDSTSYLINTSQNYSLRNNVSSFVYEDSRAFSTEEPLDFEFDENGDIQELTKGTINSDPSLQAASQHSNLGSVQREYNSEEQESRIHMFEIDEDVLPLPVPLQSVMDSEHNENEPRALKRRKVQKLLEPDENIELSTRTLSQWRKNYVERMIALEATKYVRRRGASSAKKKELNKFFDWESFHPLLKPWIEKLKPSNNTPSEIDDVLRNIDTSEVEVGRDVQGELGLNIPWNTSSRSNSAINSKSHSQTGSEHSTPLLDTKYRKRLPHSPSMPSRVEFLPALEAAQFHETLNSELSLQLSDDFVLYKNTQEENAHLMLSMEKECANFYEYAKTAIYENNGRITFSSLLPNDLKRPVVAQAFSHLLSLATKSAFLVKQDKPYSEISVSLNLKSTDAI
**Q.** How did the binding turn out when B3 was run?
**A.** Its binding is “no binding”.
